Reference: patent publication US20210364527A1
These are yes or no findings as the source states them, for the method shown. Some binding calls cover weakened binding; strength is not graded here. For some of these results: Tags and fused reporters may be left off the sequences shown.

Key:
[1] = biological target: T1, FITC-labeled RA peptide …-FITC; assay: fluorescence polarization, single point
T1 sequence (peptide, C-terminal FITC): RAKLDEESILKQK

[2] = biological target: T2, FITC-labeled KA peptide …-FITC; assay: fluorescence polarization titration
T2 sequence (peptide, C-terminal FITC): KAKLDEESILKQK

[3] = biological target: T1, FITC-labeled RA peptide …-FITC; assay: single point fluorescence polarization, FITC-peptide with UBR-streptavidin complex

| Binder | binding [1] | binding [2] | binding [3] |
| --- | --- | --- | --- |
| PS629 (protein) MCPNYKHHGRPCARQFKQGEPIYRCYECGFDETCVMCMHCFNREQHRDHEVSISIASSSNDGICDCGDPQAWNIELHCQSELD | binds |  |  |
| Kluyveromyces marxianus UBR1 (PS621) (protein) MHSKFSHAGRICGAKFKVGEPIYRCKECSFDDTCVLCVNCFNPKDHTGHHVYTTICTEFNNGICDCGDKEAWNHTLFCKAEEG |  | binds | binds |
| PS622 (protein) MHSRFNHAGRICASKFKVGEPIYRCKECSFDDTCVICVNCFNPKDHVGHHVYTSICSEFNNGICDCGDTEAWNHDMHCKADEN | binds |  |  |
